This is an account of results in PMC12208403.

Protein sequences, listed by entry. Tags and fused reporters are not part of them. Lines headed by an entry give the natural chain unless they say otherwise; changes in a name come on top.
UniProt P63172: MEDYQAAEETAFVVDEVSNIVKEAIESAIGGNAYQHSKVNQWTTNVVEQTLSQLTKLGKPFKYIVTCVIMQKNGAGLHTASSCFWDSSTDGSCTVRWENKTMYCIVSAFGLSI
UniProt Q9UM00: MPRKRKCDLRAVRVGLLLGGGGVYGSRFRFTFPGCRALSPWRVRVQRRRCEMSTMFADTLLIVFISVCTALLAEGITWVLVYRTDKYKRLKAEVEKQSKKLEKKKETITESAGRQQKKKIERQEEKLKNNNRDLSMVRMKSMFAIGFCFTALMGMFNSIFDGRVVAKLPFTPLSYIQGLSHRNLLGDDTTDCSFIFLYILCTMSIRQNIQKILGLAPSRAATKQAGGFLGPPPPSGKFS

Results are given in words; binding and its absence hold for the method and conditions named. In cells and extracts the contact can be indirect. Binding calls can cover weak binding; strength is not graded here.

The target in this assay is Dynein light chain type 1 (DYNLT1) (human (endogenous in iPSC-aCMs)) (UniProt P63172). Nature of the assay: co-IP; IP of endogenous DYNLT1 from iPSC-aCM lysate with anti-DYNLT1 antibody or control IgG, Protein A/G magnetic beads; Western blot for TMCO1 and DYNLT1; three independent experiments. (In general: In western blotting, separated proteins are transferred to a membrane and probed.)

For the substance TMCO1 (from UniProt Q9UM00), the binding result was “binds”.
